Experimental data: PubChem BioAssay AID1508597 (Cure First, 2020)
Purpose: 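Survival screen with siRNA in ovarian cancer cells derived from patients, with or without rucaparib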 (primary screen). Cell system: human ovarian carcinoma lines grown from tumours: OCI-P5x (papillary serous) and OCI-C5x (clear cell). Knock-down reagent: siRNA pool against human genes, 1.25 pmol siRNA per well. Duration: 72 h or 96 h, depending on the cell culture. Conditions: rucaparib 20 µM (about IC30) or vehicle, present until read-out. Rucaparib or vehicle: Rucaparib. Cell line: OCI-C5x (clear cell). Detection: 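Luminescent ATP-based viability assay read 72 or 96 h after transfection, depending on culture, given as normalised percent viability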. Reading the numbers: viability, normalised: higher = more viable cells remaining. Rule for the call: 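a well counts as a hit if its normalised viability is under 80 percent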. Calls: active = viability under 80%; inactive = viability 80% or more.
Shown is a random part of the about 2,100 reagents, under one of the conditions tested. 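Calls flag viability under 80% in either arm, not effects specific to rucaparib; the reference for percent is not stated.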 A number with no mark means an inactive call. A reagent listed more than once was tested more than once; the source does not tell the runs apart. Not stated in the record: the 100% reference.

DDX21 (DExD-box helicase 21), technical replicate 1 showed viability, normalised (%) = 55.8 (active).
For DDX21 (DExD-box helicase 21), technical replicate 1 the deposit lists viability, normalised (%) = 57.7 (active).
With DDX21 (DExD-box helicase 21), technical replicate 2, the values are viability, normalised (%) = 54.2 (active).
DDX21 (DExD-box helicase 21), technical replicate 2 scored viability, normalised (%) = 38.3 (active).
For DDX21 (DExD-box helicase 21), technical replicate 3 the deposit lists viability, normalised (%) = 62.6 (active).
For DDX21 (DExD-box helicase 21), technical replicate 3, the values are viability, normalised (%) = 48 (active).
For MAPKAPK2 (MAPK activated protein kinase 2), technical replicate 1, the values are viability, normalised (%) = 44.7 (active).
MAPKAPK2 (MAPK activated protein kinase 2), technical replicate 2 scored viability, normalised (%) = 58 (active).
With MAPKAPK2 (MAPK activated protein kinase 2), technical replicate 3 the deposit lists viability, normalised (%) = 43.1 (active).
MAD2L1 (mitotic arrest deficient 2 like 1), technical replicate 1 scored viability, normalised (%) = 55.7 (active).
MAD2L1 (mitotic arrest deficient 2 like 1), technical replicate 2 gave viability, normalised (%) = 59.5 (active).
MAD2L1 (mitotic arrest deficient 2 like 1), technical replicate 3 scored viability, normalised (%) = 70.4 (active).
With USB1 (U6 snRNA biogenesis phosphodiesterase 1), technical replicate 1 the deposit lists viability, normalised (%) = 58.8 (active).
USB1 (U6 snRNA biogenesis phosphodiesterase 1), technical replicate 2 showed viability, normalised (%) = 46.2 (active).
With USB1 (U6 snRNA biogenesis phosphodiesterase 1), technical replicate 3 the deposit lists viability, normalised (%) = 46.6 (active).
EGFR (epidermal growth factor receptor), technical replicate 1 gave viability, normalised (%) = 50.8 (active).
EGFR (epidermal growth factor receptor), technical replicate 2 scored viability, normalised (%) = 43 (active).
For EGFR (epidermal growth factor receptor), technical replicate 3, the values are viability, normalised (%) = 44.8 (active).
PHF10 (PHD finger protein 10), technical replicate 1 showed viability, normalised (%) = 95.2.
With PHF10 (PHD finger protein 10), technical replicate 2, the values are viability, normalised (%) = 67.7 (active).
For PHF10 (PHD finger protein 10), technical replicate 3 the deposit lists viability, normalised (%) = 47.9 (active).
For CBX3 (chromobox 3), technical replicate 1 the deposit lists viability, normalised (%) = 71.2 (active).
CBX3 (chromobox 3), technical replicate 2 gave viability, normalised (%) = 58.9 (active).
CBX3 (chromobox 3), technical replicate 3 showed viability, normalised (%) = 61.7 (active).
SLC1A2, technical replicate 1 gave viability, normalised (%) = 32.2 (active).
SLC1A2, technical replicate 2 scored viability, normalised (%) = 34.9 (active).
With SLC1A2, technical replicate 3, the values are viability, normalised (%) = 26 (active).
TET2 (tet methylcytosine dioxygenase 2), technical replicate 1 scored viability, normalised (%) = 39.2 (active).
TET2 (tet methylcytosine dioxygenase 2), technical replicate 2 gave viability, normalised (%) = 34.5 (active).
TET2 (tet methylcytosine dioxygenase 2), technical replicate 3 showed viability, normalised (%) = 30.8 (active).
SPTB (spectrin beta, erythrocytic), technical replicate 1 gave viability, normalised (%) = 67.7 (active).
SPTB (spectrin beta, erythrocytic), technical replicate 2 scored viability, normalised (%) = 49.9 (active).
SPTB (spectrin beta, erythrocytic), technical replicate 3 scored viability, normalised (%) = 71.7 (active).
AK5 (adenylate kinase 5), technical replicate 1 gave viability, normalised (%) = 62.1 (active).
With AK5 (adenylate kinase 5), technical replicate 2 the deposit lists viability, normalised (%) = 65.1 (active).
With AK5 (adenylate kinase 5), technical replicate 3, the values are viability, normalised (%) = 34 (active).
With LYN (LYN proto-oncogene, Src family tyrosine kinase), technical replicate 1 the deposit lists viability, normalised (%) = 36.3 (active).
LYN (LYN proto-oncogene, Src family tyrosine kinase), technical replicate 2 scored viability, normalised (%) = 45.5 (active).
LYN (LYN proto-oncogene, Src family tyrosine kinase), technical replicate 3 scored viability, normalised (%) = 45.8 (active).
CDC42BPB (CDC42 binding protein kinase beta), technical replicate 1 gave viability, normalised (%) = 81.9.
CDC42BPB (CDC42 binding protein kinase beta), technical replicate 2 gave viability, normalised (%) = 86.2.
CDC42BPB (CDC42 binding protein kinase beta), technical replicate 3 scored viability, normalised (%) = 43.2 (active).
